Measurements as given in patent US6452014B1, “Telomerase inhibitors and methods of their use” (Geron Corporation, priority 2000, dated 2002).
Some results were stated once for a whole list of compounds, not compound by compound.

The chains behind the UniProt entries cited, without tags or fusion partners. Where a name states a change or a piece, a line headed by the entry shows the natural chain unless it says otherwise.
UniProt O14746: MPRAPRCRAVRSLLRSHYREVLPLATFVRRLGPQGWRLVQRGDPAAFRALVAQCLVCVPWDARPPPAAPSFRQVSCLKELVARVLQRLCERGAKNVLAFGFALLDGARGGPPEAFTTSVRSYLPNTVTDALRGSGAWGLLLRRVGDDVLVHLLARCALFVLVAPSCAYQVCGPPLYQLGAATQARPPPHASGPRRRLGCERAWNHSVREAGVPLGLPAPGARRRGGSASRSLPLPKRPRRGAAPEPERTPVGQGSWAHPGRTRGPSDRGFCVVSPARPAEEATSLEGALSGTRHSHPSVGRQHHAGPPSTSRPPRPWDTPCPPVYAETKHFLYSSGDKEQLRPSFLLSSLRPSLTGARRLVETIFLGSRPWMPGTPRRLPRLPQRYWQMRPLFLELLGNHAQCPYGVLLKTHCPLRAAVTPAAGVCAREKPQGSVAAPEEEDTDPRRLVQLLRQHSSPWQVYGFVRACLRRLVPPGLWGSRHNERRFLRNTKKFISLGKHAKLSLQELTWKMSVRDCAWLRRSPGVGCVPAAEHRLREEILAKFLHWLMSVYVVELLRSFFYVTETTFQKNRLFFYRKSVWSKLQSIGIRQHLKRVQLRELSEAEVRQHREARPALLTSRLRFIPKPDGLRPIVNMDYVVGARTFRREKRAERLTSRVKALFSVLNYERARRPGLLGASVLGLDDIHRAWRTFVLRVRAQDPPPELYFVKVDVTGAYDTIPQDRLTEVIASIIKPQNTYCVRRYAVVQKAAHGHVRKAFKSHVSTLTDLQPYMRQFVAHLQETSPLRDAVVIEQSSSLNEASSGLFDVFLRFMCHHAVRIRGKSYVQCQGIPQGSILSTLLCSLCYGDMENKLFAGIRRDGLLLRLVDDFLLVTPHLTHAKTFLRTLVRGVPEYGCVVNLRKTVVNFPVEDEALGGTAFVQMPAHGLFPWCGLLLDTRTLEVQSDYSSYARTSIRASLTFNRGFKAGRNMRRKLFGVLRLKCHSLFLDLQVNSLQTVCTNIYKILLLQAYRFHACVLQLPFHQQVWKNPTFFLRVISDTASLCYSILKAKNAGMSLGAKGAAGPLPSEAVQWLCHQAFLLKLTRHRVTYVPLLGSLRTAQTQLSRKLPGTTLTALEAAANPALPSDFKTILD

Each molecule was assayed against T1, telomerase (Homo sapiens, UniProt O14746) (assay: Bio-Tel FlashPlate telomerase activity assay). Settings: affinity-purified extract of 293 cells over-expressing hTERT.
T1 construct: expressed in transfected cells; host or cells: 293 cells over-expressing hTERT
Assay type: biochemical

IC50, < 100 µM:
CN(C)CCn1c(-c2ccc(/C=C3\SC(=O)NC3=O)cc2)nc2cc(Cl)c(Cl)cc21 [Example 21, 5,6-Dichloro-1-(2-dimethyaminoethyl)-2-[4-[(2,4-dioxothiazolidin-5-ylidene)methyl]phenyl]benzimidazole]
O=C1NC(=O)/C(=C/c2ccc(-c3nc4ccccc4n3Cc3ccc(Cl)c(Cl)c3)cc2)S1 [Example 14, 1-(3,4-Dichlorobenzyl)-2-[4-[(2,4-dioxothiazolidin-5ylidene)methyl]-phenyl]benzimidazole]
CN(C)CCn1c(-c2nc3cc(Cl)c(Cl)cc3[nH]2)cc2cc(/C=C3\SC(=O)NC3=O)ccc21 [Example 53, 5,6-Dichloro-2-[1-[2-(dimethylamino)ethyl]-5-[(2,4-dioxothiazolidin-5-ylidene)methyl]indol-2-yl]benzimidazole]
O=C1NC(=O)/C(=C/c2ccc(-c3nc4cc(C(F)(F)F)ccc4[nH]3)cc2)S1 [Example 7, 2-[4-[(2,4-Dioxothiazolidin-5-ylidene)methyl]phenyl]-5-(trifluoromethyl)benzimidazole]
O=C1NC(=O)/C(=C/c2cc3cc(-c4nc5cc(Cl)c(Cl)cc5[nH]4)ccc3[nH]2)S1 [Example 46, 5,6-Dichloro-2-[2-[(2,4-dioxothiazolidin-5-ylidene)methyl]indol-5-yl]benzimidazole]
O=C1NC(=O)/C(=C/c2ccc(-c3nc4cc(Cl)c(Cl)cc4[nH]3)cc2F)S1 [Example 37]
CCOC(=O)Cn1c(-c2ccc(/C=C3\SC(=O)NC3=O)cc2)nc2cc(Cl)c(Cl)cc21 [Example 20, Ethyl [5,6-Dichloro-2-[4-[(2,4-dioxothiazolidin-5-ylidene)methyl]phenyl]-benzimidazol-1-yl]acetate]
O=C1NC(=O)/C(=C/c2ccc(-c3nc4ccccc4[nH]3)cc2)S1 [Example 2, 2-[4-[(2,4-Dioxothiazolidin-5-ylidene)methyl]phenyl]benzimidazole]
CSc1nc2cc(Cl)c(Cl)cc2n1-c1ccc(/C=C2\SC(=O)NC2=O)cc1 [Example 56, 5,6-Dichloro-1-[[4-(2,4-dioxothiazolidin-5-ylidene)methyl]phenyl]-2-(methythio)benzimidazole]
O=C1NC(=O)/C(=C/c2ccc3nc(-c4nc5cc(Cl)c(Cl)cc5[nH]4)ccc3c2)S1 [Example 44, 5,6-Dichloro-2-[6-[(2,4-dioxothiazolidin-5-ylidene)methyl]quinolin-2-yl]benzimidazole]
O=C1NC(=O)/C(=C/c2sc(-c3nc4cc(Cl)c(Cl)cc4[nH]3)cc2Br)S1 [Example 31, 2-[3-Bromo-2-[(2,4-dioxothiazolidin-5-ylidene)methyl]thiophen-5-yl]-5,6-dichlorobenzimidazole]
O=C1NC(=O)/C(=C/c2ccc3cc(-c4nc5cc(Cl)c(Cl)cc5[nH]4)ccc3n2)S1 [Example 43, 5,6-Dichloro-2-[2-[(2,4-dioxothiazolidin-5-ylidene)methyl]quinolin-6-yl]benzimidazole]
O=C1NC(=O)C(=Cc2ccc(-c3nc4cc(Cl)c(Cl)cc4[nH]3)cn2)S1 [Example 35, 5,6-Dichloro-2-[2-[(2,4-dioxothiazolidin-5-ylidene)methyl]pyridin-5-yl]benzimidazole]
O=C1NC(=O)/C(=C/c2ccc(-c3nc4cc(Cl)c(Cl)cc4n3Cc3ccc4ccccc4c3)cc2)S1 [Example 24, 5,6-Dichloro-2-[4-[(2,4-dioxothiazolidin-5-ylidene)methyl]phenyl]-1-(2-naphthylmethyl)benzimidazole]
C=CCn1c(-c2ccc(/C=C3\SC(=O)NC3=O)cc2)nc2cc(Cl)c(Cl)cc21 [Example 19, 1-Allyl-5,6-dichloro-2-[4-[(2,4-dioxothiazolidin-5-ylidene)methyl]-phenyl]benzimidazole]
O=C1NC(=O)/C(=C/c2ccc(-c3nc4cc([N+](=O)[O-])ccc4[nH]3)cc2)S1 [Example 4, 2-[4-[(2,4-Dioxothiazolidin-5-ylidene)methyl]phenyl]-5-nitrobenzimidazole]
COCn1c(-c2cc3cc(/C=C4\SC(=O)NC4=O)ccc3n2C)nc2cc(Cl)c(Cl)cc21 [Example 48, 5,6-Dichloro-2-[5-[(2,4-dioxothiazolidin-5-ylidene)methyl]-1-methylindol-2-yl]-1-(methoxymethyl)benzimidazole]
